{
  "source": "patent US9968602B2",
  "about": "“Modulation of cell fates and activities by phthalazinediones” (Bach Pharma, Inc., priority 2002, dated 2018)",
  "tested_on": "ATM-deficient mice",
  "test": "Thymic tumor formation and premature degeneration in ATM-deficient mice",
  "assay_type": "in vivo",
  "from_the_text": "In regulatory gene-dependent syndromes of premature aging, including ataxia telangiectasia, Down syndrome, trichothiodystrophy, Bloom's disease, p53 over-activity (De Boer et al., Science 296: 1276-1281, 2002; Tyner et al., Nature 415: 45-50, 2002), in which life and death of specific cell types are aberrant, appropriate treatments in vitro and in vivo with thiol redox modulators have been partially successful.\nOther thiol redox modulators, such as N-acetyl cysteine and dehydrolipoic acid, also delay the premature degeneration of cells and the thymomas. Thiol redox modulators also correct the delayed differentiation and excessive production of DNA in ATM-deficient lymphoid cells (Yan et al., FASEB J. 15: 1132-1138, 2001; Lynn et al., unpublished). However, in the ATM-deficient mice, treatment was fully successful only if the thiol redox modulators were applied early, before two weeks of age and before tumor development.\nWhether amino phthalazinediones with other thiol redox modulators, which suppress growth of non-transformed ATM-deficient cells in vitro, can fully suppress tumors in vivo, without toxicity, has not been rigorously evaluated. Cross-linking redox modulators such as diamide, menadione, and oxidized phthalazines are known to stop cell growth, activate caspases, and initiate apoptosis in some tumor cells (Pias and Aw, FASEB J. 16: 781-790, 2002).",
  "note": "For at least one compound, name, drawing or mass did not settle the structure.",
  "data": [
    {"smiles": "C[C@@H]1C[C@H]2[C@@H]3CCC4=CC(=O)C=C[C@]4(C)[C@@]3(F)[C@@H](O)C[C@]2(C)[C@@]1(O)C(=O)CO", "note": "[Dexamethasone, dexamethasone]", "values": [
      {"measurement": "tumor formation", "setting": "given alone to 10-day old ATM-deficient mice for three weeks", "result": "completely prevents tumor formation"},
      {"measurement": "tumor growth or longevity", "setting": "given at physiologic doses at three months of age", "result": "does not suppress tumor growth or increase longevity"}
    ]}
  ]
}
